# Results are given in words; binding and its absence hold for the method and conditions named. For some of these results: Binding seen in cells or lysates may run through a third protein. Some entries that bind do so weakly or less than the wild type. For some of these results: Where a sequence is shown, tags or fusion partners need not be part of it.
# B1: DNA Topoisomerase II (protein, UniProt P15348 1-1447)
# chain: MENGNKALSIEQMYQKKSQLEHILLRPDSYIGSVEFTKELMWVYDNSQNRMVQKEISFVPGLYKIFDEILVNAADNKQRDKSMNTIKIDIDPERNMVSVWNNGQGIPVTMHKEQKMYVPTMIFGHLLTSSNYNDDEKKVTGGRNGYGAKLCNIFSTSFTVETATREYKKSFKQTWGNNMGKASDVQIKDFNGTDYTRITFSPDLAKFKMDRLDEDIVALMSRRAYDVAASSKGVSVFLNGNKLGVRNFKDYIDLHIKNTDDDSGPPIKIVHEVANERWEVACCPSDRGFQQVSFVNSIATYKGGRHVDHVVDNLIKQLLEVLKKKNKGGINIKPFQVRNHLWVFVNCLIENPTFDSQTKENMTLQQKGFGSKCTLSEKFINNMSKSGIVESVLAWAKFKAQNDIAKTGGRKSSKIKGIPKLEDANEAGGKNSIKCTLILTEGDSAKSLAVSGLGVIGRDLYGVFPLRGKLLNVREANFKQLSENAEINNLCKIIGLQYKKKYLTEDDLKTLRYGKVMIMTDQDQDGSHIKGLLINFIHTNWPELLRLPFLEEFITPIVKATKKNEELSFYSLPEFEEWKNDTANHHTYNIKYYKGLGTSTSKEAKEYFQDMDRHRILFKYDGSVDDESIVMAFSKKHIESRKVWLTNHMDEVKRRKELGLPERYLYTKGTKSITYADFINLELVLFSNADNERSIPSLVDGLKPGQRKVMFTCFKRNDKREVKVAQLSGSVAEMSAYHHGEVSLQMTIVNLAQNFVGANNINLLEPRGQFGTRLSGGKDCASARYIFTIMSPLTRLIYHPLDDPLLDYQVDDGQKIEPLWYLPIIPMVLVNGAEGIGTGWSTKISNYNPREIMKNLRKMINGQEPSVMHPWYKNFLGRMEYVSDGRYIQTGNIQILSGNRLEISELPVGVWTQNYKENVLEPLSNGTEKVKGIISEYREYHTDTTVRFVISFAPGEFERIHAEEGGFYRVFKLTTTLSTNQMHAFDQNNCLRRFPTAIDILKEYYKLRREYYARRRDFLVGQLTAQADRLSDQARFILEKCEKKLVVENKQRKAMCDELLKRGYRPDPVKEWQRRIKMEDAEQADEEDEEEEEAAPSVSSKAKKEKEVDPEKAFKKLTDVKKFDYLLGMSMWMLTEEKKNELLKQRDTKLSELESLRKKTPEMLWLDDLDALESKLNEVEEKERAEEQGINLKTAKALKGQKSASAKGRKVKSMGGGAGAGDVFPDPDGEPVEFKITEEIIKKMAAAAKVAQAAKEPKKPKEPKEPKVKKEPKGKQIKAEPDASGDEVDEFDAMVEGGSKTSPKAKKAVVKKEPGEKKPRQKKENGGGLKQSKIDFSKAKAKKSDDDVEEVTPRAERPGRRQASKKIDYSSLFSDEEEDGGNVGSDDDGNASDDDSPKRPAKRGREDESSGGAKKKAPPKKRRAVIESDDDDIEIDEDDDDDSDFNC
# B2: Topo II fused to the GAL4 activation domain or DNA binding domain (protein, UniProt P15348 1-1447)
# chain: B1 chain
# B3: Mod(mdg4)2.2 fused to the GAL4 activation domain or DNA binding domain, Q86B87 1-610 (protein)
# chain: MADDEQFSLCWNNFNTNLSAGFHESLCRGDLVDVSLAAEGQIVKAHRLVLSVCSPFFRKMFTQMPSNTHAIVFLNNVSHSALKDLIQFMYCGEVNVKQDALPAFISTAESLQIKGLTDNDPAPQPPQESSPPPAAPHVQQQQIPAQRVQRQQPRASARYKIETVDDGLGDEKQSTTQIVIQTTAAPQATIVQQQQPQQAAQQIQSQQLQTGTTTTATLVSTNKRSAQRSSLTPASSSAGVKRSKTSTSANVMDPLDSTTETGATTTAQLVPQQITVQTSVVSAAEAKLHQQSPQQVRQEEAEYIDLPMELPTKSEPDYSEDHGDAAGDAEGTYVEDDTYGDMRYDDSYFTENEDAGNQTAANTSGGGVTATTSKAVVKQQSQNYSESSFVDTSGDQGNTEAQAATSASATKIPPRKRGRPKTKVEDQTPKPKLLEKLQAATLNEEASEPAVYASTTKGGVKLIFNGHLFKFSFRKADYSVFQCCYREHGEECKVRVVCDQKRVFPYEGEHVHFMQASDKSCLPSQFMPGESGVISSLSPSKELLMKNTTKLEEADDKEDEDFEEFEIQEIDEIELDEPEKTPAKEEEVDPNDFREKIKRRLQKALQNKKK
# How the values were obtained:
# [1] = molecular target: T1, Mod(mdg4)2.2 (Drosophila) (UniProt Q86B87); assay: co-IP; extracts treated with antibodies to Mod(mdg4)2.2 and blotted with anti-Topo II, and extracts treated with antibodies to Topo II and blotted with anti-Mod(mdg4)2.2; conducted as described in ref. 15
# T1 sequence: B3 chain
# [2] = molecular target: T2, Mod(mdg4)2.2 fused to the GAL4 activation domain or DNA binding domain (Drosophila) (UniProt Q86B87); assay: two-hybrid; Invitrogen ProQuest Two-Hybrid System; GAL4 activation domain (pDEST22) and DNA binding domain (pDEST32) fusions; growth on -URA and lack of growth on 5FOA plates indicates interaction
# T2 sequence: B3 chain
# [3] = molecular target: Topo II fused to the GAL4 activation domain or DNA binding domain (Drosophila) (UniProt P15348); assay: as above
# [4] = molecular target: T3, Mod(mdg4)2.2 fused to the GAL4 activation domain or DNA binding domain (Drosophila), Q86B87; assay: as above; details: remark: other sources report otherwise
# T3 chain: B3 chain
binder,measurement,setting,value
B1,binding,[1],binds
B2,binding,[2],binds
same,binding,[3],binds
B3,binding,[4],binds
